For one experiment, the system named is E. coli CNCTC 377/79. Description: Antimicrobial activity, broth dilution method. The conditions noted are these: Escherichia coli, CNCTC377/79; 24 h, 37 °C. It counts as cell-based. How it is done:
(§1) The antimicrobial activities of the synthesized copper (II) complexes were evaluated against E. coli CNCTC 377/79 (Gram-negative bacterium), S. aureus CNCTC Mau 29/58 (Gram-positive bacterium), and the yeast C. albicans CCM 8186. Bacterial strains were obtained from the Czech National Collection of Type Cultures (National Institute of Public Health, Prague, Czech Republic) and the yeast was purchased from the Czech Collection of Microorganisms (Masaryk University, Brno, Czech Republic). Bacteria were grown aerobically in nutrient broth (IMUNA PHARM, Šarišské Michaľany, Slovakia) and the yeast in BD Difco Sabouraud dextrose broth (Becton, Dickinson and Company, Franklin Lakes, NJ, USA) for 18 h at 37 °C or 48 h at 24 °C, respectively. Cultures were then maintained at 4 °C on appropriate solid medium: Endo agar (Oxoid Ltd., Basingstoke, UK) for E. coli, blood agar (Biomark Laboratories, Pune, India) for S. aureus, and BD Sabouraud dextrose agar (Becton, Dickinson and Company, Franklin Lakes, NJ, USA) for C. albicans. Working cultures were prepared by the incubation of a single colony of each microorganism in NB (bacteria) or SDB (yeast) for 18 h at 37 °C or 48 h at 24 °C, respectively. […]
(§2) Antimicrobial activity was determined using the broth dilution method as described in [7]. […]
Background: Broth dilution looks for growth in wells or tubes with falling amounts of substance.

Experiment [1] has as its system S. aureus CNCTC Mau 29/58. Description: Antimicrobial activity, broth dilution method. The conditions noted are these: Staphylococcus aureus; 24 h, 37 °C. It counts as cell-based. The procedure: as §1, §2

≈ marks a conversion by molar mass, not a printed value.

One may read the MIC as the smallest concentration in the dilution series that meets the test's criterion for growth inhibition.

As to `O=C(O)c1cn(C2CC2)c2cc(N3CCNCC3)c(F)cc2c1=O` [cpx, ciprofloxacine, reference compound], the MIC against E. coli CNCTC 377/79 was < 0.3 µM; in experiment [1], 0.68 µM (≈ 0.225 µg/mL).

For the origin of these results see publication PMC11395566, “Novel Copper (II) Complexes with Fluorine-Containing Reduced Schiff Base Ligands Showing Marked Cytotoxicity in the HepG2 Cancer Cell Line” (International Journal of Molecular Sciences, 2024).
